These are yes or no findings as the source states them, for the method shown. Binding seen in cells or lysates may run through a third protein. Here binding means that the protein was enriched with, or labelled near, the bait; the list need not be complete.
Biological target: T1, BirA*-cyclin F(WT) (human) (UniProt P41002)
T1 sequence: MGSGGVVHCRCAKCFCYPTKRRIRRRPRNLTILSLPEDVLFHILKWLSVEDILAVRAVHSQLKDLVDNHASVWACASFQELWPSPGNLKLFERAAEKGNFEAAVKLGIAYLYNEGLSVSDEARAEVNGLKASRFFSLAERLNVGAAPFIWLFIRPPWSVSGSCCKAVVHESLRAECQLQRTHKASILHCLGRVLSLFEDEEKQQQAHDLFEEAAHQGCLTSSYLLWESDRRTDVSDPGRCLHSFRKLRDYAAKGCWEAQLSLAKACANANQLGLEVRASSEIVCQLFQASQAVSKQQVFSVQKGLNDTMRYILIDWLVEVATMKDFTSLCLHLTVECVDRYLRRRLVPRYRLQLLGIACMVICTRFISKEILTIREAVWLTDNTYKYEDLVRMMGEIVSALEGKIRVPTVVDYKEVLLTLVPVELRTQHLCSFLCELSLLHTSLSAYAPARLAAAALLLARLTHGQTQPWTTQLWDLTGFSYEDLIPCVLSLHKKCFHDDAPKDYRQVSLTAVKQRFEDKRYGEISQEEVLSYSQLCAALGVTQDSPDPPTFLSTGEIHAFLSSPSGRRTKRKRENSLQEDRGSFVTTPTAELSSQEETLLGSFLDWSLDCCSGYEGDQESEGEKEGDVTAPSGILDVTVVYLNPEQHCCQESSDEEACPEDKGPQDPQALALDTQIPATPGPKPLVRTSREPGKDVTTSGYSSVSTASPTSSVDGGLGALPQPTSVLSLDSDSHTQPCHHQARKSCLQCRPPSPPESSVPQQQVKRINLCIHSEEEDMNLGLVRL
Test: proximity labelling

## Casein kinase II (CKII) (enzyme)
  binding: binds

From doi:10.1101/2020.04.30.071365
